In PubChem BioAssay AID1347426 (Functional Genomics Laboratory (NCATS/FGL), 2020):
Screen size: about 31,000 sequences; about 1,400 (4.5%) were called active.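 The calls were made as follows: active = median seed-adjusted z-score above 1 or below -1; inactive = the rest.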 The list shows a part of the results.

Experiment: Novel Modifiers of Survival Motor Neuron (SMN) Protein: Gene Identification via Genome-wide siRNA Screen;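 also: luminescence tracks full-length SMN protein made from the SMN2 reporter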
Details: HEK293T SMN2-luciferase reporter, siRNA knockdown, 72 h; actives lie on both sides
Method in brief: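 siRNA screen, 10418 genes ×3 siRNAs; 1 pmol/well, lipid reverse transfection into HEK293T SMN2-luc reporter line. 72 h, 37 °C, 5% CO2; ONE-Glo readout. Data: neg-ctrl normalized, log10, MAD; hit = MAD >1.0 or < -1.0.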

Sequence | median seed-adjusted z-score
GGACAGGGCGUCUUCCUAATT against NFIC | inactive: 0.72
CUUUCUACCAAUUCUCAUATT against ZNF493 | inactive: 0.0872
CAAGCUCCUUUGACACGCATT against RRN3 | inactive: 0.0382
AAGUUGCCGUUGUCCCUAATT against TRIM45 | inactive: -0.0974
CCAAGGUCUUUGUCCUAGATT against CLDN19 | inactive: 0
GAAUGACUUUUAUUGAGCUTT against PCSK9 | inactive: 0.146
CAUCUCCAAUGACAAAUUUTT against TFDP1 | inactive: 0.0449
GCUUGCUACUUUAUCGAGATT against ERCC6L | inactive: -0.0229
AGGUAUGUAUUGUCCUCUATT against CKMT1B | inactive: -0.929
CCAACGCAGUAAUGGUUUATT against KIF2C | inactive: 0.0122
GGAAGUGCCCAGUGACUUATT against SLPI | inactive: 0.274
GGGCUACUACUCAACCACATT against TACR1 | inactive: -0.391
CAUGGAUGAGUUUACCCAATT against APEX2 | inactive: -0.347
AGACCGAGUUUGGAUCCAATT against DTX1 | inactive: -0.0757
GAACGUAGAAUGAAAGUAATT against PSMC1 | active: -2.23
GCUCUAUUGUGCACUCGGATT against POU3F3 | inactive: -0.366
UGGUUACUCUGAUGCAAGATT against MYH1 | inactive: -0.567
GCAUUACCGCCAGAAUGGUTT against NUDT14 | inactive: 0.479
GUAUACCGAUUGAUAACCATT against BTAF1 | active: -1.19
GCAAUGAAUUAGCCUUGAATT against PKIA | inactive: 0.533
GGUGUAAAGUAAUUGUAGATT against PCDHGB7 | inactive: -0.0065
GGACAUCGAGACUAUAAAATT against PTGFR | inactive: 0
AUAGAUGUAUAGUCAAAAATT against COX8C | inactive: -0.0513
GGGUUGGAAUAUCCUAACATT against NDUFS1 | inactive: -0.217
CCUGGUCCUGGGUAAGUUUTT against ADARB1 | inactive: 0.375
GGGCAUCGCUAAACCCAAATT against LIF | inactive: 0.273
AGAUGGAGUUCAAUUGCGATT against NF2 | inactive: -0.543

Sequence | median seed-adjusted z-score
GUGGAUAGCUUGGAAUUCATT against CRX | inactive: -0.156
GAGAGUUAGUUAAACGGUATT against RG9MTD1 | inactive: -0.375
CGAAGGAUAUCUAUCAUCATT against NXF1 | active: -4.46
GGAAUACUCUGCUAUUGCATT against UBE2Q1 | inactive: -0.241
UGACCACCGCUACGACAAATT against DDAH1 | inactive: 0.138
GUACAGGACUUUCCUCUAATT against PTPN2 | inactive: 0.302
ACAUCAUGAGGAAUGCUAUTT against UCP3 | active: 1.23
CAAUAUUAGUUGCUGUAUATT against PPAP2A | inactive: 0
GCCUGAAUUUGCUAGUGUATT against SLC30A1 | inactive: 0.314
GGAAAGAAGGUAGUCAGUUTT against ZNF709 | inactive: 0.0129
CCUGAGAGGUUCCAACUAUTT against ITGAL | inactive: 0.537
UCACAGAGCCUAUUAUUUUTT against PRKY | inactive: 0.168
CAUCAAAUGUAAACGACGATT against REPS1 | inactive: 0.185
GCUGGUUAAUAAUCCACUATT against POU6F2 | inactive: 0.416
CUCAGUUGGUUGAUAUGAATT against FGA | inactive: 0.267
GCAGAUUGCUAGGACCACATT against MYOT | inactive: 0.091
CAGGUGAUAUGGAGUGUAUTT against SNX18 | inactive: 0
GAGGCGGCAUUAAGAGGAATT against NPPB | inactive: -0.973
CAACAUACCUCAAUCCUGUTT against MMP11 | inactive: -0.354
GCAAUAAUCUCUCGCAGUATT against TP73 | inactive: 0.353
GAAUAGAUCUGAACCGGAATT against CPE | inactive: 0.139
GAAACACUCUCAGAUGCUATT against DNAJB9 | inactive: 0.0962
CCCAAUUGUAUAUCUGAUATT against CYSLTR2 | inactive: 0.0461
CGGAUAACUUUAUCUUGUUTT against NTRK3 | inactive: 0
CCUAAGGGCAUGUAUUUAATT against RCOR3 | inactive: 0.0446
UGGGCACAAUGGUUACUCATT against POGZ | inactive: -0.376
GGAUGGGUCUCGCAAAAUATT against ZFYVE1 | inactive: -0.546

Individual results from the results shown:
GGGCUACUACUCAACCACATT against TACR1 | median seed-adjusted z-score: inactive: -0.391
CGGAUAACUUUAUCUUGUUTT against NTRK3 | median seed-adjusted z-score: inactive: 0
GGACAGGGCGUCUUCCUAATT against NFIC | median seed-adjusted z-score: inactive: 0.72
